Measurements as given in patent US12065471B2, “B*44 restricted peptides for use in immunotherapy against cancers and related methods” (Immatics Biotechnologies GmbH, priority 2018, dated 2024).
For part of these data: Expression grades refer to the transcript from which the peptide derives; gene names, where given, were looked up from the sequence.

Assays:
[1] = tested on: HLA molecules of primary tumor and normal tissue samples; experiment: Identification and quantitation of tumor associated peptides presented on the cell surface (HLA immunoprecipitation, label-free LC-MS); design: species or system human; conditions: cancer entities on which the peptide was found presented (HLA immunoprecipitation, LC-MS); abbreviations in table footnotes
[2] = tested on: source genes (mRNA) in tumor and normal tissues; experiment: Expression profiling of genes encoding the peptides (RNAseq); design: species or system human; conditions: for Gene Expression in tumor samples: highly over-expressed (++): tumor types in which the peptide's source gene is highly over-expressed compared to a panel of normal tissues (RNAseq); for Gene Expression in tumor samples: over-expressed (+): tumor types in which the peptide's source gene is over-expressed compared to a panel of normal tissues (RNAseq)

Row | Substance | Peptide Presentation on cancer entities [1] | Gene Expression in tumor samples: highly over-expressed (++) [2] | Gene Expression in tumor samples: over-expressed (+) [2]
1 | 46: peptide found in MMP13 (gene looked up) (SELGLPKEV; listed as Homo sapiens) [compound 46] | HNSCC | HNSCC, NSCLCsquam, OSCAR | NSCLCadeno, UBC
2 | 47: peptide found in SIGLEC15 (gene looked up) (TEVHSSPAQRW; listed as Homo sapiens) [compound 47] | NHL, UBC | UBC | AML, CCC, GC, HCC, NHL, OC, PACA, UEC
3 | 51: peptide found in DNTT (gene looked up) (VEMTGKHQL; listed as Homo sapiens) [compound 51] | AML | AML | –
4 | 56: peptide found in SRMS (gene looked up) (ALEEGGGYIF; listed as Homo sapiens) [compound 56] | HCC | CRC, OC | BRCA, GBC, GBM, GC, HNSCC, MEL, NSCLCadeno, NSCLCother, OSCAR, PACA, UBC, UEC
5 | 67: peptide found in LOXL4 (gene looked up) (TEGAVEVKY; listed as Homo sapiens) [compound 67] | HCC | MEL | CCC
6 | 71: peptide found in F5 (gene looked up) (AEVGDIIKV; listed as Homo sapiens) [compound 71] | NSCLCadeno, PACA | HCC | CCC
7 | 72: peptide found in F5 (gene looked up) (AEVGDIIKVHF; listed as Homo sapiens) [compound 72] | HCC | HCC | CCC
8 | 82: peptide found in F5 (gene looked up) (AVFDESKSW; listed as Homo sapiens) [compound 82] | HCC, OSCAR | HCC | CCC
9 | 83: peptide found in F5 (gene looked up) (TEGGTQKTF; listed as Homo sapiens) [compound 83] | CCC, HCC, NHL, OSCAR | HCC | CCC
10 | 98: peptide found in PGR (gene looked up) (SEESAGPLL; listed as Homo sapiens) [compound 98] | BRCA | UEC | BRCA
11 | 101: peptide found in MMP1 (gene looked up) (SEENTGKTY; listed as Homo sapiens) [compound 101] | OSCAR | HNSCC, NSCLCsquam, OSCAR | CRC, GC, NSCLCadeno, PACA, UBC
12 | 103: peptide found in MMP13 (gene looked up) (AELFLTKSF; listed as Homo sapiens) [compound 103] | HNSCC, NSCLCsquam | HNSCC, NSCLCsquam, OSCAR | NSCLCadeno, UBC
13 | 104: peptide found in SIGLEC15 (gene looked up) (EVHSSPAQRW; listed as Homo sapiens) [compound 104] | UBC | UBC | AML, CCC, GC, HCC, NHL, OC, PACA, UEC
14 | 118: peptide found in LOXL4 (gene looked up) (SEVPVDSHYY; listed as Homo sapiens) [compound 118] | GBC | MEL | CCC
15 | 120: peptide found in LOXL4 (gene looked up) (VTEGAVEVKY; listed as Homo sapiens) [compound 120] | AML, BRCA, CRC, NSCLCadeno, OC | MEL | CCC
16 | 126: peptide found in PGR (gene looked up) (SEASQSPQY; listed as Homo sapiens) [compound 126] | UEC | UEC | –
17 | 139: peptide found in LOXL4 (gene looked up) (AESDFSNNML; listed as Homo sapiens) [compound 139] | MEL | MEL | –
18 | 141: peptide found in DNTT (gene looked up) (SEKWFRMGF; listed as Homo sapiens) [compound 141] | AML | AML | –

Row | Substance | Peptide Presentation on cancer entities [1] | Gene Expression in tumor samples: highly over-expressed (++) [2] | Gene Expression in tumor samples: over-expressed (+) [2]
19 | 143: peptide found in NOTUM (gene looked up) (HEIIIRSHW; listed as Homo sapiens) [compound 143] | CRC, HCC, UEC | HCC | –
20 | 144: peptide found in NAT1 (gene looked up) (IEAYLERIGY; listed as Homo sapiens) [compound 144] | BRCA | BRCA | –
21 | 151: peptide found in PTPRZ1 (gene looked up) (TELQIPSF; listed as Homo sapiens) [compound 151] | RCC | GBM | –
22 | 152: peptide found in F5 (gene looked up) (HENLIEDF; listed as Homo sapiens) [compound 152] | HCC, OSCAR | HCC | CCC
23 | 161: peptide found in DNTT (gene looked up) (GESSEVKAVL; listed as Homo sapiens) [compound 161] | AML | AML | –
24 | 177: peptide found in LY6K (gene looked up) (LEEPMPFFY; listed as Homo sapiens) [compound 177] | OSCAR | GBC, HNSCC | MEL, NSCLCadeno, NSCLCother, NSCLCsquam, OC, OSCAR, UBC
25 | 184: peptide found in DNTT (gene looked up) (EEQLLQKVM; listed as Homo sapiens) [compound 184] | AML | AML | –
26 | 186: peptide found in DNTT (gene looked up) (EEIFAHLGL; listed as Homo sapiens) [compound 186] | AML | AML | –
27 | 191: peptide found in PHEX (gene looked up) (AEHDMKSVL; listed as Homo sapiens) [compound 191] | NHL | CLL | NHL
28 | 197: peptide found in F5 (gene looked up) (NEILTIHF; listed as Homo sapiens) [compound 197] | BRCA, GC, HCC, NSCLCadeno, NSCLCsquam, OSCAR | HCC | CCC
29 | 206: peptide found in ADAMTS12 (gene looked up) (SEDPEKYYL; listed as Homo sapiens) [compound 206] | CCC, NSCLCsquam | CCC, GBC | BRCA, CRC, GC, HNSCC, MEL, NSCLCadeno, NSCLCother, NSCLCsquam, OSCAR, PACA, SCLC, UBC
30 | 207: peptide found in IRF4 (gene looked up) (LEGGGRGGEF; listed as Homo sapiens) [compound 207] | BRCA, OSCAR | NHL | MEL
31 | 209: peptide found in SIGLEC15 (gene looked up) (AEGEPPPAL; listed as Homo sapiens) [compound 209] | UBC | UBC | HCC, MEL, NHL, OC, PACA, UEC
32 | 210: peptide found in SIGLEC15 (gene looked up) (AEGEPPPALAW; listed as Homo sapiens) [compound 210] | NHL, UBC | UBC | HCC, MEL, NHL, OC, PACA, UEC
33 | 213: peptide found in FERMT1 (gene looked up) (DEDLFHKL; listed as Homo sapiens) [compound 213] | OSCAR | CRC | GC, HNSCC, OSCAR, UBC
34 | 215: peptide found in GPR143 (gene looked up) (SAMWIQLLY; listed as Homo sapiens) [compound 215] | MEL | MEL | –
35 | 227: peptide found in EGFR (gene looked up) (ALTEDSIDDTF; listed as Homo sapiens) [compound 227] | GBM | GBM | –
